{"source": "patent US10513533B2", "about": "“Tunicamycin related compounds with anti-bacterial activity” (priority 2017, dated 2019)", "assay_type_in_all_cases": "cell-based", "key": {"Bacillus subtilis": {"test_system": "Bacillus subtilis", "test": "agar diffusion-zone of inhibition assay"}, "[1]": {"test_system": "AtchitIV5 N-glycosylation", "test": "Pichia-based protein N-glycosylation assay (SDS-PAGE)", "conditions": "Example 2, 20 μg/mL, added at methanol induction"}, "Saccharomyces cerevisiae": {"test_system": "Saccharomyces cerevisiae", "test": "agar diffusion-zone of inhibition assay"}}, "note": "Some entries share one result that the patent states for a list of compounds."}
{"smiles": "CC(=O)NC1C(O)[C@H](O)C(CO)O[C@@H]1OC1O[C@H](C[C@@H](O)C2O[C@@H](n3ccc(=O)[nH]c3=O)[C@H](O)[C@@H]2O)C(O)C(O)[C@H]1N", "note": "(stereo partly shown) [Compound 1]", "values": [{"measurement": "antimicrobial activity on Bacillus (in words)", "setting": "Bacillus subtilis", "value": "completely lack antimicrobial activity"}, {"measurement": "inhibition of AtchitIV5 N-glycosylation (in words)", "setting": "[1]", "value": "no inhibitory activity"}, {"measurement": "toxicity / antimicrobial activity on S. cerevisiae (in words)", "setting": "Saccharomyces cerevisiae", "value": "completely lack antimicrobial activity"}]}
{"smiles": "CC(C)CCCCCCCCC/C=C/C(=O)N[C@@H]1C(O)C(O)[C@@H](C[C@@H](O)C2O[C@@H](n3ccc(=O)[nH]c3=O)[C@H](O)[C@@H]2O)O[C@H]1O[C@H]1O[C@@H](CO)[C@@H](O)C(O)C1N=[N+]=[N-]", "note": "(stereo partly shown) [Compound 4]", "values": [{"measurement": "inhibition of AtchitIV5 N-glycosylation (in words)", "setting": "[1]", "value": "no inhibitory activity"}]}
{"smiles": "[N-]=[N+]=NC1C(O)[C@H](O)C(CO)O[C@@H]1OC1O[C@H](C[C@@H](O)C2O[C@@H](n3ccc(=O)[nH]c3=O)[C@H](O)[C@@H]2O)C(O)C(O)[C@H]1N1C(=O)c2ccccc2C1=O", "note": "(stereo partly shown) [Compound 5]", "values": [{"measurement": "antimicrobial activity on Bacillus (in words)", "setting": "Bacillus subtilis", "value": "completely lack antimicrobial activity"}, {"measurement": "inhibition of AtchitIV5 N-glycosylation (in words)", "setting": "[1]", "value": "no inhibitory activity"}, {"measurement": "toxicity / antimicrobial activity on S. cerevisiae (in words)", "setting": "Saccharomyces cerevisiae", "value": "completely lack antimicrobial activity"}]}
{"smiles": "COc1ccc(O[C@@H]2OC([C@H](O)C[C@H]3OC(O[C@H]4OC(CO)[C@@H](O)C(O)C4NC(C)=O)[C@H](N)C(O)C3O)[C@@H](O)[C@H]2O)cc1", "note": "(stereo partly shown) [Compound 6]", "values": [{"measurement": "antimicrobial activity on Bacillus (in words)", "setting": "Bacillus subtilis", "value": "completely lack antimicrobial activity"}, {"measurement": "inhibition of AtchitIV5 N-glycosylation (in words)", "setting": "[1]", "value": "no inhibitory activity"}, {"measurement": "toxicity / antimicrobial activity on S. cerevisiae (in words)", "setting": "Saccharomyces cerevisiae", "value": "completely lack antimicrobial activity"}]}
{"smiles": "COc1ccc(O[C@@H]2OC([C@H](O)C[C@H]3O[C@@H](O[C@H]4O[C@@H](CO)[C@@H](O)C(O)C4NC(C)=O)[C@H](NC(=O)/C=C/CCCCCCCCCC(C)C)C(O)C3O)[C@@H](O)[C@H]2O)cc1", "note": "(stereo partly shown) [Compound 7]", "values": [{"measurement": "antimicrobial activity on Bacillus (in words)", "setting": "Bacillus subtilis", "value": "completely lack antimicrobial activity"}, {"measurement": "inhibition of AtchitIV5 N-glycosylation (in words)", "setting": "[1]", "value": "no inhibitory activity"}, {"measurement": "toxicity / antimicrobial activity on S. cerevisiae (in words)", "setting": "Saccharomyces cerevisiae", "value": "completely lack antimicrobial activity"}]}
{"smiles": "CC(=O)NC1C(O)[C@H](O)C(CO)O[C@@H]1OC1O[C@H](C[C@@H](O)C2O[C@@H](n3ccc(=O)[nH]c3=O)[C@H](O)[C@@H]2O)C(O)C(O)[C@H]1NC(C)=O", "note": "(stereo partly shown) [Compound 9]", "values": [{"measurement": "antimicrobial activity on Bacillus (in words)", "setting": "Bacillus subtilis", "value": "completely lack antimicrobial activity"}, {"measurement": "inhibition of AtchitIV5 N-glycosylation (in words)", "setting": "[1]", "value": "no inhibitory activity"}, {"measurement": "toxicity / antimicrobial activity on S. cerevisiae (in words)", "setting": "Saccharomyces cerevisiae", "value": "completely lack antimicrobial activity"}]}
{"smiles": "CC(=O)NC1C(O)[C@H](O)[C@H](CO)O[C@@H]1O[C@@H]1O[C@H](C[C@@H](O)C2O[C@@H](n3cnc4c(N)ncnc43)[C@H](O)[C@@H]2O)C(O)C(O)[C@H]1NC(=O)/C=C/CCCCCCCCCC(C)C", "note": "(stereo partly shown) [Compound 10]", "values": [{"measurement": "antimicrobial activity on Bacillus (in words)", "setting": "Bacillus subtilis", "value": "completely lack antimicrobial activity"}, {"measurement": "inhibition of AtchitIV5 N-glycosylation (in words)", "setting": "[1]", "value": "no inhibitory activity"}, {"measurement": "toxicity / antimicrobial activity on S. cerevisiae (in words)", "setting": "Saccharomyces cerevisiae", "value": "completely lack antimicrobial activity"}]}
